The target in the assay is Recombinant human DSG2 protein (desmoglein 2), soluble (human) (UniProt Q14126). Description: Western blot of dimeric knob probed with soluble DSG2. (In western blotting, separated proteins are transferred to a membrane and probed.)

Sequences of proteins named here, by UniProt entry; tags and fusion partners are left off. Residues count along the entry.
UniProt Q14126, residues 50-609: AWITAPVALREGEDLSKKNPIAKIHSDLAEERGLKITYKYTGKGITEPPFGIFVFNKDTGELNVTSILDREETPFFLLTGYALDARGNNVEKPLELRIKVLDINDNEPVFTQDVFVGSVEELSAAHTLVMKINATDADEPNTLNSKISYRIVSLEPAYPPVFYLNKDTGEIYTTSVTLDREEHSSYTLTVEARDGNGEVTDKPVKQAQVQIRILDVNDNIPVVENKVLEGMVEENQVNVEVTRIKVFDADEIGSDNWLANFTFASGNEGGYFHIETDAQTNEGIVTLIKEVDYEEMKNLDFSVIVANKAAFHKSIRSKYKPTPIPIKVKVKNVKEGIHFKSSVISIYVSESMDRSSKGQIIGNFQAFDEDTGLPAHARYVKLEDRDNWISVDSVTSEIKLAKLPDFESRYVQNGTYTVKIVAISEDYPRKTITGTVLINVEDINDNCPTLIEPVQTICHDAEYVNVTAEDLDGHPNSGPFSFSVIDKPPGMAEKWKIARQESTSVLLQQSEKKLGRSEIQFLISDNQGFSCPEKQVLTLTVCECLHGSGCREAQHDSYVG

Data on one molecule can be found in patent US20190092819A1 (published 2019).

No constants are given. Whether binding was seen depends on the method and setting. Some entries that bind do so weakly or less than the wild type.

B1: dimeric Ad3 fiber knob mutant L292A (ligand)
chain: MKVSALKEKVSALKEKVSALKEKVSALKEKVSALKEGSGGGSGGGSGGGSNSIALKNNTLWTGPKPEANCIIEYGKQNPDSKLTLILVKNGGIVNGYVTLMGASDYVNTLFKNKNVSINVELYFDATGHILPDSSSLKTDLELKYKQTADFSARGFMPSTTAYPFVLPNAGTHNENYIFGQCYYKASDGALFPLEVTVMLNKRLPDSRTSYVMTFLWSANAGLAPETTQATLITSPFTFSYIREDD
For B1, the binding entry is on record as “binds”.
